Measurements from patent publication US10525115B2 (Immatics Biotechnologies GmbH, priority 2014, dated 2020).

Experiments:
primary AML samples = test: HLA class I ligandome analysis (W6/32 immunoaffinity purification, LC-MS/MS) of primary AML samples; design: species or system human; details: HLA class I ligandome, AML patients (n=15); count for the HLA ligand (LiTAP) or, on protein lines, for the source protein (LiTAA)
[1] = system: cancer tissues in comparison to non-cancerous tissues and organs; test: Presentation profile / over-presentation by label-free LC-MS (XPRESIDENT), tumor versus normal tissues, other proliferative diseases; design: species or system human; details: other proliferative diseases / organs (other than AML) that over- or exclusively present the peptide; Table 5

Row | Substance | Number of positive AMLs (primary AML samples) | Proliferative disease and location thereof [1]
1 | 80 (LPVRTLSI; listed as Homo sapiens) [compound 80] | 1 | colon or rectum, metastatic renal cell carcinoma
2 | 81 (RESEYKQVY; listed as Homo sapiens) [compound 81] | 1 | colon or rectum, metastatic renal cell carcinoma
3 | 82 (SESLPVRTL; listed as Homo sapiens) [compound 82] | 1 | colon or rectum, metastatic renal cell carcinoma
4 | 83 (RLLESVVVL; listed as Homo sapiens) [compound 83] | 1 | lung, non-small cell lung carcinoma, spleen, chronic myeloid leukemia
5 | 84 (RPEEGKESL; listed as Homo sapiens) [compound 84] | 1 | lung, non-small cell lung carcinoma, spleen, chronic myeloid leukemia
6 | 85 (THGKLVILF; listed as Homo sapiens) [compound 85] | 2 | lung, non-small cell lung carcinoma, spleen, chronic myeloid leukemia
7 | 93 (DIKRGIPN; listed as Homo sapiens) [compound 93] | 1 | stomach, adenocarcinoma, lung, small cell carcinoma
8 | 94 (DIKRGIPNY; listed as Homo sapiens) [compound 94] | 1 | stomach, adenocarcinoma, lung, small cell carcinoma
9 | 95 (FLDITNPKA; listed as Homo sapiens) [compound 95] | 2 | stomach, differentiated subtype adenocarcinoma, lung, small cell carcinoma
10 | 96 (ALYSVYRQK; listed as Homo sapiens) [compound 96] | 2 | kidney, angiomyolipoma
11 | 97 (KVLALVFGF; listed as Homo sapiens) [compound 97] | 1 | kidney, angiomyolipoma
12 | 98 (SFTDVIGHY; listed as Homo sapiens) [compound 98] | 1 | kidney, angiomyolipoma
13 | 99 (ASAAASGGLLK; listed as Homo sapiens) [compound 99] | 3 | colon or rectum, spleen, extramedullary; hematopoiesis
14 | 100 (ALLGVTGAPK; listed as Homo sapiens) [compound 100] | 1 | colon or rectum, spleen, extramedullary; hematopoiesis
15 | 101 (DEIKTLQRY; listed as Homo sapiens) [compound 101] | 1 | stomach, adenocarcinoma, liver, carcinoid tumor, metastatic
16 | 102 (EAYVQKMV; listed as Homo sapiens) [compound 102] | 1 | stomach, adenocarcinoma, liver, carcinoid tumor, metastatic
17 | 103 (VLHQDSGLGY; listed as Homo sapiens) [compound 103] | 1 | stomach, adenocarcinoma, liver, carcinoid tumor, metastatic
18 | 104 (YLQNHFVGL; listed as Homo sapiens) [compound 104] | 1 | stomach, adenocarcinoma, liver, carcinoid tumor, metastatic
19 | 105 (AEIEDIRVL; listed as Homo sapiens) [compound 105] | 1 | stomach, metastatic, duodenum, adenocarcinoma
20 | 106 (GQSRLIFTY; listed as Homo sapiens) [compound 106] | 1 | stomach, metastatic, duodenum, adenocarcinoma
21 | 107 (READFKETL; listed as Homo sapiens) [compound 107] | 2 | stomach, metastatic, duodenum, adenocarcinoma
22 | 108 (DTMGPSQHVY; listed as Homo sapiens) [compound 108] | 1 | lung, non-small cell lung carcinoma, spleen, extramedullary hematopoiesis
23 | 109 (ESRGPALTR; listed as Homo sapiens) [compound 109] | 1 | lung, non-small cell lung carcinoma, spleen, extramedullary hematopoiesis

Row | Substance | Number of positive AMLs (primary AML samples) | Proliferative disease and location thereof [1]
24 | 110 (FQLPGLGTPPIT; listed as Homo sapiens) [compound 110] | 1 | lung, non-small cell lung carcinoma, spleen, extramedullary hematopoiesis
25 | 111 (RIQGYVVSW; listed as Homo sapiens) [compound 111] | 1 | lung, non-small cell lung carcinoma, spleen, extramedullary hematopoiesis
26 | 112 (LLDPSVFHV; listed as Homo sapiens) [compound 112] | 3 | stomach, adenocarcinoma, testis, seminoma
27 | 113 (RFFHLADLF; listed as Homo sapiens) [compound 113] | 1 | stomach, adenocarcinoma, testis, seminoma
28 | 114 (DSISGNLQR; listed as Homo sapiens) [compound 114] | 1 | stomach, metastatic, bone, non-ossifying fibroma
29 | 115 (ETEQTIQKL; listed as Homo sapiens) [compound 115] | 1 | stomach, metastatic, bone, non-ossifying fibroma
30 | 116 (FLYPFLSHL; listed as Homo sapiens) [compound 116] | 1 | stomach, metastatic, bone, non-ossifying fibroma
31 | 117 (TLDQKIERV; listed as Homo sapiens) [compound 117] | 3 | stomach, metastatic, bone, non-ossifying fibroma
32 | 118 (DADSRAATV; listed as Homo sapiens) [compound 118] | 1 | liver, hepatocellular carcinoma, kidney, renal cell carcinoma
33 | 119 (DHEGFGFVL; listed as Homo sapiens) [compound 119] | 1 | liver, hepatocellular carcinoma, kidney, renal cell carcinoma
34 | 120 (GEAVKVLSI; listed as Homo sapiens) [compound 120] | 1 | liver, hepatocellular carcinoma, kidney, renal cell carcinoma
35 | 121 (NATDLLKVL; listed as Homo sapiens) [compound 121] | 2 | liver, hepatocellular carcinoma, kidney, renal cell carcinoma
36 | 122 (KEITEGKTV; listed as Homo sapiens) [compound 122] | 1 | stomach, metastatic, rectum, adenocarcinoma
37 | 123 (YRQKQVVIL; listed as Homo sapiens) [compound 123] | 2 | stomach, metastatic, rectum, adenocarcinoma
38 | 124 (VAINLIVQH; listed as Homo sapiens) [compound 124] | 1 | stomach, metastatic, rectum, adenocarcinoma
39 | 127 (DAIKVFVRI; listed as Homo sapiens) [compound 127] | 1 | stomach, adenocarcinoma, kidney, Wilm's tumor
40 | 128 (LEKAFSEI; listed as Homo sapiens) [compound 128] | 1 | stomach, adenocarcinoma, kidney, Wilm's tumor
41 | 129 (MEKSDKNQ; listed as Homo sapiens) [compound 129] | 1 | stomach, adenocarcinoma, kidney, Wilm's tumor
42 | 130 (GQTGSGKTF; listed as Homo sapiens) [compound 130] | 1 | stomach, adenocarcinoma, rectum, adenocarcinoma
43 | 131 (DTSPDLSSR; listed as Homo sapiens) [compound 131] | 1 | lung, non-small cell lung carcinoma, testis, seminoma
44 | 132 (KLNEVIVNK; listed as Homo sapiens) [compound 132] | 3 | lung, non-small cell lung carcinoma, testis, seminoma
45 | 133 (FAQIISVALI; listed as Homo sapiens) [compound 133] | 1 | stomach, adenocarcinoma, parathyroid gland, adenoma
